Data as given in PubChem BioAssay AID504793 (Drosophila RNAi Screening Center, 2011).
The deposit covers about 23,000 reagents; shown is a random part of those with a known target gene and a result. Over the whole deposit, 62 (0.27%) were called active. 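Calls come from follow-up tests whose scores are not deposited, so confirmed genes may have low counts here; counts are not normalised per plate.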 Raw values vary from plate to plate and are shown uncorrected. Reagents against one gene are numbered here. Names joined by + are all predicted targets of the reagent. Reagent sequences are not shown.

Aim: 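Whole-genome screen for parts of the DNA damage checkpoint at G2/M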 (primary screen)
System: Drosophila S2R+ cells
Reagent: long dsRNA against Drosophila genes, about 0.25 µg dsRNA per well
Duration: 4 days of dsRNA, then 4 hours of drug before read-out
Treatment: doxorubicin 0.5 µM for 4 hours to cause double-strand breaks, in cells also given a low, harmless dose of dsRNA against nbs to sensitise the assay
Read-out: 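Mitotic index as the number of phospho-histone H3-positive cells in each well following doxorubicin, given as raw counts without normalisation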
Reading the numbers: mitotic cells: higher = more cells in mitosis, weaker G2 arrest
Hit rule: 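a call needs confirmation in secondary tests, with other dsRNAs and a check of mitotic timing without damage, not just a high primary count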
Meaning of the calls: active = confirmed in follow-up tests; inactive = not confirmed

CG9083 (GeneID 37982) #1 | mitotic cells, replicate 1: 12; Call: inactive
CG9083 (GeneID 37982) #2 | mitotic cells, replicate 1: 7; Call: inactive
CG33339 (GeneID 2768681) #1 | mitotic cells, replicate 1: 8; Call: inactive
CG33339 (GeneID 2768681) #2 | mitotic cells, replicate 1: 6; Call: inactive
CG10909 (GeneID 41581) | mitotic cells, replicate 1: 5; Call: inactive
zye (GeneID 40255) | mitotic cells, replicate 1: 2; Call: inactive
Cdc16 (GeneID 42753) | mitotic cells, replicate 1: 141; Call: inactive
fand (GeneID 36514) #1 | mitotic cells, replicate 1: 3; Call: inactive
fand (GeneID 36514) #2 | mitotic cells, replicate 1: 8; Call: inactive
CG4116 (GeneID 31291) #1 | mitotic cells, replicate 1: 9; Call: inactive
CG4116 (GeneID 31291) #2 | mitotic cells, replicate 1: 5; Call: inactive
RNaseMRP:RNA (GeneID 3772365) | mitotic cells, replicate 1: 6; Call: inactive
CG15084 (GeneID 37178) #1 | mitotic cells, replicate 1: 7; Call: inactive
CG15084 (GeneID 37178) #2 | mitotic cells, replicate 1: 19; Call: inactive
CG15084 (GeneID 37178) #3 | mitotic cells, replicate 1: 13; Call: inactive
CG42286 (retired record) (GeneID 41002) | mitotic cells, replicate 1: 8; Call: inactive
CG31031 (retired record) (GeneID 318564) | mitotic cells, replicate 1: 8; Call: inactive
dos (GeneID 38321) #1 | mitotic cells, replicate 1: 3; Call: inactive
dos (GeneID 38321) #2 | mitotic cells, replicate 1: 7; Call: inactive
dos (GeneID 38321) #3 | mitotic cells, replicate 1: 15; Call: inactive
CG12439 (GeneID 34234) | mitotic cells, replicate 1: 5; Call: inactive
dUTPase (GeneID 34529) #1 | Call: inactive
dUTPase (GeneID 34529) #2 | mitotic cells, replicate 1: 2; Call: inactive
CG32640 + CG32641 | mitotic cells, replicate 1: 6; Call: inactive
bard (GeneID 42161) | mitotic cells, replicate 1: 9; Call: inactive
Tsp42Ek (GeneID 35621) | mitotic cells, replicate 1: 5; Call: inactive
CG3788 (GeneID 37644) #1 | mitotic cells, replicate 1: 6; Call: inactive
CG3788 (GeneID 37644) #2 | mitotic cells, replicate 1: 7; Call: inactive
CG8360 (GeneID 34122) #1 | mitotic cells, replicate 1: 11; Call: inactive
CG8360 (GeneID 34122) #2 | mitotic cells, replicate 1: 9; Call: inactive
dtn (GeneID 31555) #1 | mitotic cells, replicate 1: 13; Call: inactive
dtn (GeneID 31555) #2 | mitotic cells, replicate 1: 7; Call: inactive
CG32719 (GeneID 318169) #1 | mitotic cells, replicate 1: 7; Call: inactive
CG32719 (GeneID 318169) #2 | mitotic cells, replicate 1: 6; Call: inactive
omd (GeneID 41674) #1 | mitotic cells, replicate 1: 8; Call: inactive
omd (GeneID 41674) #2 | mitotic cells, replicate 1: 4; Call: inactive
Dhc93AB (GeneID 42485) #1 | mitotic cells, replicate 1: 15; Call: inactive
Dhc93AB (GeneID 42485) #2 | mitotic cells, replicate 1: 5; Call: inactive
jus (GeneID 43453) #1 | mitotic cells, replicate 1: 11; Call: inactive
jus (GeneID 43453) #2 | mitotic cells, replicate 1: 9; Call: inactive
Drs (GeneID 38419) #1 | mitotic cells, replicate 1: 8; Call: inactive
Drs (GeneID 38419) #2 | mitotic cells, replicate 1: 6; Call: inactive
TwdlX (GeneID 318094) #1 | mitotic cells, replicate 1: 32; Call: inactive
TwdlX (GeneID 318094) #2 | mitotic cells, replicate 1: 6; Call: inactive

Part of the list above, reformatted.
{"target":"jus (GeneID 43453)","reagent no.":1,"mitotic cells, replicate 1":11,"Call":"inactive"}
{"target":"jus (GeneID 43453)","reagent no.":2,"mitotic cells, replicate 1":9,"Call":"inactive"}
{"target":"Drs (GeneID 38419)","reagent no.":1,"mitotic cells, replicate 1":8,"Call":"inactive"}
